In PubChem BioAssay AID192 (DTP/NCI, 2004):
The list is a part of this screen's results and no random one: it gathers tests that were run many times, whatever their T/C, doses with no T/C, and many T/C values between a quarter and a half above the control. Further doses and runs are listed elsewhere. T/C is the treated group as % of the vehicle group. Some doses have a count of surviving animals in place of a T/C: the source files T/C as zero there, which appears to mark a toxic dose or a test without result, not a measured value. Some doses without a T/C left all or most animals alive at the check, yet need not have been tolerated: survival well below the control is almost never listed, so the zero probably covers shortened survival too. Counts of survivors are from the toxicity check (mostly the fifth day) where no day follows; animals may have died later. Schedule codes are those of the source, taken here to give the interval after Q, in days (D) or hours (H), and the number of doses after X. Some entries were tested several times; the results are listed from low to high. Brackets with × stand for listed records that agree. For survival time, this PubChem deposit counts one and a half times the control or more as active, and values a quarter to a half above the control carry no call in these data; other NCI protocols may use other cut-offs. Some T/C values carry the count of animals alive at the toxicity check (mostly the fifth day); where none is given, no animal had died by that day. Numbered stars: 1 amine (or outer) side, 2 acyl side, 3 side chain; on linkers, the order of the positions; unused ones are H or OH. Bridge positions count the residues as written; N and C are the ends. Square brackets hold non-standard residues; d marks the D form. Peptide text beside a SMILES is read from it. I, II: the chains in the order shown. Actinocin(9to1) = Cc1c2oc3c(C)ccc(C(=O)[*:1])c3nc-2c(C(=O)[*:2])c(N)c1=O; X2 = O=C(C1CC(Cl)CN1[*:1])[*:2]; NMeV = CN[CH](C(=O)O)C(C)C; Sar = CNCC(=O)O

Test system: BDF1 mice, B16 melanoma ip, median survival T/C
Assay: NCI In Vivo Anticancer Drug Screen. Data for tumor model B16 Melanoma (intraperitoneal) in B6D2F1 (BDF1) mice
Details: T/C endpoint: median survival time, higher T/C = longer survival
How it was run: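 Values are ratios of treated (T) to vehicle-control (C) measurements of survival or tumor size in tumor-bearing mice.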

[1] = dose: 25.0 mg/kg/injection, schedule: Q01DX009 (ip), vehicle: Klucel (hydroxypropylcellulose) (HPC)
[2] = dose: 50.0 mg/kg/injection, schedule: Q01DX009 (ip), vehicle: Klucel (hydroxypropylcellulose) (HPC)
[3] = dose: 100.0 mg/kg/injection, schedule: Q01DX009 (ip), vehicle: Klucel (hydroxypropylcellulose) (HPC)
[4] = dose: 100.0 mg/kg/injection, schedule: Q01DX009 (ip), vehicle: saline with Tween-80
[5] = dose: 100.0 mg/kg/injection, schedule: Q01DX009 (ip), vehicle: saline
[6] = dose: 200.0 mg/kg/injection, schedule: Q01DX009 (ip), vehicle: saline with Tween-80
[7] = dose: 400.0 mg/kg/injection, schedule: Q01DX009 (ip), vehicle: saline with Tween-80

Structure (SMILES): CS(=O)(=O)OCCCCOS(C)(=O)=O
- survivor count (dose: 12.5 mg/kg/injection, schedule: Q01DX009 (ip), vehicle: Klucel (hydroxypropylcellulose) (HPC)): 6 of 6
- T/C [1]: 89 (2×), 92 (3×), 94, 95 [5 of 6 alive], 100, 103 [5 of 6 alive], 105 [4 of 6 alive], 109, 110, 129 % of control
- survivor count [1]: 6 of 6
- T/C (dose: 25.0 mg/kg/injection, schedule: Q01DX009 (ip), vehicle: saline with Tween-80, evaluated on day 45): 95 % of control [5 of 6 alive]
- T/C (dose: 25.0 mg/kg/injection, schedule: Q01DX009 (ip), vehicle: saline with Tween-80, evaluated on day 50): 115 % of control
- T/C (dose: 25.0 mg/kg/injection, schedule: Q01DX009 (ip), vehicle: saline with Tween-80, evaluated on day 60): 91 [5 of 6 alive], 95, 97 (2×), 104 % of control
- survivor count (dose: 25.0 mg/kg/injection, schedule: Q01DX009 (ip), vehicle: saline with Tween-80): 5 of 6 (2×) and 6 of 6
- T/C (dose: 25.0 mg/kg/injection, schedule: Q01DX009 (ip), vehicle: saline): 86, 92, 93, 105 (3×), 117 % of control
- T/C [2]: 87 [4 of 6 alive], 90, 90 [4 of 6 alive], 91 [5 of 6 alive], 97, 100 (2×), 111 % of control [5 of 6 alive]
- survivor count [2]: 4 of 6, 5 of 6, 6 of 6
- T/C (dose: 50.0 mg/kg/injection, schedule: Q01DX009 (ip), vehicle: saline with Tween-80, evaluated on day 50): 92 % of control [5 of 6 alive]
- T/C (dose: 50.0 mg/kg/injection, schedule: Q01DX009 (ip), vehicle: saline with Tween-80, evaluated on day 60): 88, 90, 92, 100 [5 of 6 alive], 102 [3 of 4 alive], 111 % of control [5 of 6 alive]
- survivor count (dose: 50.0 mg/kg/injection, schedule: Q01DX009 (ip), vehicle: saline with Tween-80): 4 of 6, 5 of 6, 6 of 6
- T/C (dose: 50.0 mg/kg/injection, schedule: Q01DX009 (ip), vehicle: saline): 91, 92, 97, 102, 110, 115 % of control
- T/C [3]: 100 and 109 % of control [4 of 6 alive]
- survivor count [3]: 0 of 6, 1 of 6, 2 of 6, 3 of 6, 5 of 6, 6 of 6
- T/C [4]: 92 and 94 % of control [4 of 6 alive]
- survivor count [4]: 1 of 6, 3 of 6 (2×), 4 of 6 (2×), 5 of 6
- survivor count [5]: 0 of 6, 1 of 6, 2 of 6, 3 of 6, 5 of 6, 6 of 6
- survivor count (dose: 200.0 mg/kg/injection, schedule: Q01DX009 (ip), vehicle: Klucel (hydroxypropylcellulose) (HPC)): 0 of 6, 1 of 6, 2 of 6, 3 of 6, 6 of 6
- survivor count [6]: 0 of 6 (2×) and 6 of 6
- survivor count (dose: 200.0 mg/kg/injection, schedule: Q01DX009 (ip), vehicle: saline): 0 of 6, 1 of 6, 2 of 6

Structure (SMILES): COc1cccc(/C=N/C(=S)NC2(C)C3CCC(C3)C2(C)C)c1O (stereo unspecified)
- survivor count (dose: 12.5 mg/kg/injection, schedule: Q01DX009 (ip), vehicle: olive oil, sesame oil, peanut oil): 10 of 10
- survivor count (dose: 25.0 mg/kg/injection, schedule: Q01DX009 (ip), vehicle: olive oil, sesame oil, peanut oil): 10 of 10
- survivor count (dose: 50.0 mg/kg/injection, schedule: Q01DX009 (ip), vehicle: olive oil, sesame oil, peanut oil): 9 of 10
- survivor count (dose: 100.0 mg/kg/injection, schedule: Q01DX009 (ip), vehicle: olive oil, sesame oil, peanut oil): 10 of 10
- survivor count (dose: 200.0 mg/kg/injection, schedule: Q01DX009 (ip), vehicle: olive oil, sesame oil, peanut oil): 10 of 10
- survivor count (dose: 400.0 mg/kg/injection, schedule: Q01DX009 (ip), vehicle: olive oil, sesame oil, peanut oil): 10 of 10

Structure (SMILES): O=S(=O)(c1ccccc1)N1CN2CCN(C2)C1
- survivor count [7]: 9 of 10

Structure (SMILES): CC(C)(C)OC(=O)NC(CCC(=O)OCc1ccccc1)C(=O)ON1C(=O)CCC1=O (stereo unspecified)
- survivor count [6]: 10 of 10
- survivor count [7]: 10 of 10

Structure (SMILES): CC[N](CC)[Ge]([CH2]C)[CH2]C.CC[N](CC)[Ge]([CH2]C)[CH2]C
- survivor count (dose: 3.12 mg/kg/injection, schedule: Q01DX009 (ip), vehicle: saline): 10 of 10
- survivor count [5]: 0 of 10

Structure (SMILES): Cc1c2oc3c(C)ccc(C(=O)NC4C(=O)NC(C(C)C)C(=O)N5CC(Cl)CC5C(=O)N(C)CC(=O)N(C)C(C(C)C)C(=O)OC4C)c3nc-2c(C(=O)NC2C(=O)NC(C(C)C)C(=O)N3CC(Cl)CC3C(=O)N(C)CC(=O)N(C)C(C(C)C)C(=O)OC2C)c(N)c1=O (stereo unspecified) (I: TV[X2][Sar][NMeV] / II: TV[X2][Sar][NMeV]; ester I:1-I:C, II:1-II:C; linker I:N-II:N via Actinocin(9to1); configuration not given here)
- T/C (dose: 648.0 micrograms/kg/injection, schedule: Q04DX003 (ip), vehicle: saline + alcohol): 144 % of control
- survivor count (dose: 3000.0 micrograms/kg/injection, schedule: Q04DX003 (ip), vehicle: saline + alcohol): 8 of 8
- survivor count (dose: 5000.0 micrograms/kg/injection, schedule: Q04DX003 (ip), vehicle: saline + alcohol): 3 of 8
